The other results are listed elsewhere or left out. Single values are uncertain, as repeats are few or missing.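 The apoptosis fraction was the count of cleaved-PARP antibody-stained nuclei relative to all DNA-stained nuclei, imaged in 1,536-well plates. Screening doses were set so most cells survived, and baseline and induced cleaved-PARP levels vary greatly across cell lines.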
test system: A101D; assay: cleaved PARP positive nuclei fraction relative to DMSO control; melanoma cells; higher = more apoptosis; conditions: library dose: low library concentration; 72 h

SMILES	cleaved PARP positive nuclei fraction [%]
N#CC[C@H](C1CCCC1)n1cc(-c2ncnc3[nH]ccc23)cn1 [ruxolitinib] + Cc1ccc(NC(=O)c2cccc(N(C)C)c2)cc1NC(=O)c1ccc(O)cc1 [ZM336372] (first compound 1 µM, partner dose 2 µM)	68.2
N#CC[C@H](C1CCCC1)n1cc(-c2ncnc3[nH]ccc23)cn1 [ruxolitinib] + COc1cc2c(Oc3ccc4[nH]c(C)cc4c3F)ncnc2cc1OCCCN1CCCC1 [cediranib] (first compound 1 µM, partner dose 0.4 µM)	34.7
O=c1[nH]nc(Sc2ncc([N+](=O)[O-])s2)n1-c1ccc2c(c1)OCCO2 + O=C(O)c1ccc(-c2c[nH]c3ncc(-c4ccccc4)cc23)cc1C1CCCC1 [GSK650394] (first compound 0.2 µM, partner dose 0.16 µM)	81.2
Cc1cc(Nc2cc(N3CCN(C)CC3)nc(Sc3ccc(NC(=O)C4CC4)cc3)n2)n[nH]1 [Tozasertib] + COc1cc2c(Oc3ccc4[nH]c(C)cc4c3F)ncnc2cc1OCCCN1CCCC1 [cediranib] (first compound 0.006 µM, partner dose 0.4 µM)	82.8
O=c1[nH]nc(Sc2ncc([N+](=O)[O-])s2)n1-c1ccc2c(c1)OCCO2 + NCC(=O)Nc1ccc(-n2nc(C(F)(F)F)cc2-c2ccc3c(ccc4ccccc43)c2)cc1 [OSU03012] (first compound 0.2 µM, partner dose 1 µM)	76
N#CC[C@H](C1CCCC1)n1cc(-c2ncnc3[nH]ccc23)cn1 [ruxolitinib] + CN(C)S(=O)(=O)c1ccc2c(c1)/C(=C/c1cc3c([nH]1)CCCC3)C(=O)N2 [SU6656] (first compound 1 µM, partner dose 0.4 µM)	152
CC[C@]1(O)C[C@H]2CN(CCc3c([nH]c4ccccc34)[C@@](C(=O)OC)(c3cc4c(cc3OC)N(C=O)[C@H]3[C@@](O)(C(=O)OC)[C@H](OC(C)=O)[C@]5(CC)C=CCN6CC[C@]43[C@@H]65)C2)C1 [vincristine] + O=C(Nc1cccc(Cl)c1)Nc1ncc(CCNc2ncnc3ccsc23)s1 [SNS314] (first compound 0.0001 µM, partner dose 0.0008 µM)	52.9

test system: A2058; assay: as above; conditions: library dose: low library concentration; 72 h

SMILES	cleaved PARP positive nuclei fraction [%]
O=C(/C=C/c1cccnc1)NCCCCC1CCN(C(=O)c2ccccc2)CC1 + CC1(C)NC(=O)N(c2ccc([N+](=O)[O-])c(C(F)(F)F)c2)C1=O [nilutamide] (first compound 0.01 µM, partner dose 1 µM)	27.2
Cc1ccc(Nc2nccc(N(C)c3ccc4c(C)n(C)nc4c3)n2)cc1S(N)(=O)=O [Pazopanib] + C[C@@H]1CCN(C(=O)CC#N)C[C@@H]1N(C)c1ncnc2[nH]ccc12 [CP690550] (first compound 0.4 µM, partner dose 1 µM)	151
O=C(Nc1cc(C(F)(F)F)cc(C(F)(F)F)c1)c1cc(Cl)ccc1O + Cc1cc(N2CCOCC2)cc2[nH]c(-c3c(NC[C@@H](O)c4cccc(Cl)c4)cc[nH]c3=O)nc12 [BMS536924] (first compound 0.016 µM, partner dose 0.2 µM)	50.6
Cc1cn(-c2cc(NC(=O)c3ccc(C)c(Nc4nccc(-c5cccnc5)n4)c3)cc(C(F)(F)F)c2)cn1 [nilotinib] + CO[C@@H]1[C@H](N(C)C(=O)c2ccccc2)C[C@H]2O[C@]1(C)n1c3ccccc3c3c4c(c5c6ccccc6n2c5c31)C(=O)NC4 [Midostaurin] (first compound 0.2 µM, partner dose 0.08 µM)	145
O=C(Nc1cc(C(F)(F)F)cc(C(F)(F)F)c1)c1cc(Cl)ccc1O + NC(=O)Nc1cc(-c2cccc(F)c2)sc1C(=O)N[C@H]1CCCNC1 [AZD7762] (first compound 0.016 µM, partner dose 0.02 µM)	87
Cc1ccc(Nc2nccc(N(C)c3ccc4c(C)n(C)nc4c3)n2)cc1S(N)(=O)=O [Pazopanib] + COc1cc2c(Oc3ccc4[nH]c(C)cc4c3F)ncnc2cc1OCCCN1CCCC1 [cediranib] (first compound 0.4 µM, partner dose 0.4 µM)	117
Cc1cn(-c2cc(NC(=O)c3ccc(C)c(Nc4nccc(-c5cccnc5)n4)c3)cc(C(F)(F)F)c2)cn1 [nilotinib] + Cc1cc(N2CCOCC2)cc2[nH]c(-c3c(NC[C@@H](O)c4cccc(Cl)c4)cc[nH]c3=O)nc12 [BMS536924] (first compound 0.2 µM, partner dose 0.2 µM)	79.5
O=c1[nH]nc(Sc2ncc([N+](=O)[O-])s2)n1-c1ccc2c(c1)OCCO2 + O=C(Nc1cccc(Cl)c1)Nc1ncc(CCNc2ncnc3ccsc23)s1 [SNS314] (first compound 0.2 µM, partner dose 0.0008 µM)	57.1
Cc1ccc(Nc2nccc(N(C)c3ccc4c(C)n(C)nc4c3)n2)cc1S(N)(=O)=O [Pazopanib] + Cc1cc(N2CCOCC2)cc2[nH]c(-c3c(NC[C@@H](O)c4cccc(Cl)c4)cc[nH]c3=O)nc12 [BMS536924] (first compound 0.4 µM, partner dose 0.2 µM)	96.7
COc1cc([C@@H]2c3cc4c(cc3[C@@H](O[C@@H]3O[C@@H]5CO[C@@H](C)O[C@H]5[C@H](O)[C@H]3O)[C@H]3COC(=O)[C@H]23)OCO4)cc(OC)c1O [etoposide] + C[C@@H]1CCN(C(=O)CC#N)C[C@@H]1N(C)c1ncnc2[nH]ccc12 [CP690550] (first compound 0.02 µM, partner dose 1 µM)	121
Cc1cc(Nc2cc(N3CCN(C)CC3)nc(Sc3ccc(NC(=O)C4CC4)cc3)n2)n[nH]1 [Tozasertib] + CN(C)S(=O)(=O)c1ccc2c(c1)/C(=C/c1cc3c([nH]1)CCCC3)C(=O)N2 [SU6656] (first compound 0.006 µM, partner dose 0.4 µM)	51.7
O=C(/C=C/c1cccnc1)NCCCCC1CCN(C(=O)c2ccccc2)CC1 + CN(NC(=O)CC(=O)NN(C)C(=S)c1ccccc1)C(=S)c1ccccc1 [STA4783] (first compound 0.01 µM, partner dose 0.006 µM)	63.1
O=C(Nc1cc(C(F)(F)F)cc(C(F)(F)F)c1)c1cc(Cl)ccc1O + CN(NC(=O)CC(=O)NN(C)C(=S)c1ccccc1)C(=S)c1ccccc1 [STA4783] (first compound 0.016 µM, partner dose 0.006 µM)	110
COc1cc([C@@H]2c3cc4c(cc3[C@@H](O[C@@H]3O[C@@H]5CO[C@@H](C)O[C@H]5[C@H](O)[C@H]3O)[C@H]3COC(=O)[C@H]23)OCO4)cc(OC)c1O [etoposide] + NC(=O)Nc1cc(-c2cccc(F)c2)sc1C(=O)N[C@H]1CCCNC1 [AZD7762] (first compound 0.02 µM, partner dose 0.02 µM)	80.2
CCCCCCCCCCCCCCCCCCOP(=O)([O-])OC1CC[N+](C)(C)CC1 [Perifosine] + NCC(=O)Nc1ccc(-n2nc(C(F)(F)F)cc2-c2ccc3c(ccc4ccccc43)c2)cc1 [OSU03012] (first compound 0.4 µM, partner dose 1 µM)	114
CCCCCCCCCCCCCCCCCCOP(=O)([O-])OC1CC[N+](C)(C)CC1 [Perifosine] + O=C(Nc1cccc(Cl)c1)Nc1ncc(CCNc2ncnc3ccsc23)s1 [SNS314] (first compound 0.4 µM, partner dose 0.0008 µM)	222
O=C(/C=C/c1cccnc1)NCCCCC1CCN(C(=O)c2ccccc2)CC1 + Cc1cc(N2CCOCC2)cc2[nH]c(-c3c(NC[C@@H](O)c4cccc(Cl)c4)cc[nH]c3=O)nc12 [BMS536924] (first compound 0.01 µM, partner dose 0.2 µM)	79.3
COc1cc([C@@H]2c3cc4c(cc3[C@@H](O[C@@H]3O[C@@H]5CO[C@@H](C)O[C@H]5[C@H](O)[C@H]3O)[C@H]3COC(=O)[C@H]23)OCO4)cc(OC)c1O [etoposide] + OCCn1cc(-c2cnc3nnn(Cc4ccc5ncccc5c4)c3n2)cn1 [PF04217903] (first compound 0.02 µM, partner dose 1 µM)	137
COc1cc([C@@H]2c3cc4c(cc3[C@@H](O[C@@H]3O[C@@H]5CO[C@@H](C)O[C@H]5[C@H](O)[C@H]3O)[C@H]3COC(=O)[C@H]23)OCO4)cc(OC)c1O [etoposide] + Cc1cc(N2CCOCC2)cc2[nH]c(-c3c(NC[C@@H](O)c4cccc(Cl)c4)cc[nH]c3=O)nc12 [BMS536924] (first compound 0.02 µM, partner dose 0.2 µM)	68.6
O=c1[nH]nc(Sc2ncc([N+](=O)[O-])s2)n1-c1ccc2c(c1)OCCO2 + O=C(CCCCCCC(=O)Nc1ccccc1)NO [vorinostat] (first compound 0.2 µM, partner dose 0.08 µM)	106
Cc1ccc(Nc2nccc(N(C)c3ccc4c(C)n(C)nc4c3)n2)cc1S(N)(=O)=O [Pazopanib] + CO[C@@H]1[C@H](N(C)C(=O)c2ccccc2)C[C@H]2O[C@]1(C)n1c3ccccc3c3c4c(c5c6ccccc6n2c5c31)C(=O)NC4 [Midostaurin] (first compound 0.4 µM, partner dose 0.08 µM)	198
N#CC[C@H](C1CCCC1)n1cc(-c2ncnc3[nH]ccc23)cn1 [ruxolitinib] + Cc1cc(N2CCOCC2)cc2[nH]c(-c3c(NC[C@@H](O)c4cccc(Cl)c4)cc[nH]c3=O)nc12 [BMS536924] (first compound 1 µM, partner dose 0.2 µM)	203

An excerpt of these results, in markdown:

| SMILES | cleaved PARP positive nuclei fraction [%] |
| --- | --- |
| O=C(Nc1cc(C(F)(F)F)cc(C(F)(F)F)c1)c1cc(Cl)ccc1O + NC(=O)Nc1cc(-c2cccc(F)c2)sc1C(=O)N[C@H]1CCCNC1 [AZD7762] (first compound 0.016 µM, partner dose 0.02 µM) | 87 |
| Cc1ccc(Nc2nccc(N(C)c3ccc4c(C)n(C)nc4c3)n2)cc1S(N)(=O)=O [Pazopanib] + Cc1cc(N2CCOCC2)cc2[nH]c(-c3c(NC[C@@H](O)c4cccc(Cl)c4)cc[nH]c3=O)nc12 [BMS536924] (first compound 0.4 µM, partner dose 0.2 µM) | 96.7 |
